Measurements reported in PubChem BioAssay AID686943 (Drosophila RNAi Screening Center, 2013).

Aim: 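Search across the genome for regulators of signalling from receptor tyrosine kinase to ERK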 (primary screen)
System: Drosophila S2R+ haemocyte-like cells expressing YFP-tagged ERK (Rolled)
Reagent: long dsRNA against Drosophila genes
Treatment: insulin stimulation versus unstimulated cells; dose and duration not given
Measurement: 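Antibody staining for doubly phosphorylated ERK divided by ERK-YFP signal, as plate z-scores, in insulin-treated and untreated cells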
Direction: replicate 1, z-score of dpERK with insulin: higher = more active ERK per ERK-YFP after insulin
In all, the deposit lists about 23,000 reagents; this is an unselected part of those with a known target gene and a result. 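Extra replicates exist only for a retested subset of genes; insulin dose and duration not given; both raised and lowered dpERK matter.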 A plus sign joins genes that one reagent is predicted to hit. Further read-outs or replicates are left out here. Not stated in the record: the amount of reagent, the time to read-out.

CG7443 (GeneID 40992) [SID104196036]: replicate 1, z-score of dpERK with insulin = -0.21
CG6106 (GeneID 32816) [SID104199763]: replicate 1, z-score of dpERK with insulin = 0.76
kmr (GeneID 5740131) [SID104192778]: replicate 1, z-score of dpERK with insulin = 1.17
kmr (GeneID 5740131) [SID104194619]: replicate 1, z-score of dpERK with insulin = -0.74
kmr (GeneID 5740131) [SID104194620]: replicate 1, z-score of dpERK with insulin = -0.06
kmr (GeneID 5740131) [SID104196264]: replicate 1, z-score of dpERK with insulin = 0.34
Oatp33Ea (GeneID 34660) [SID104182651]: replicate 1, z-score of dpERK with insulin = -0.65
CG31525 (GeneID 318782) [SID104191796]: replicate 1, z-score of dpERK with insulin = -0.54
CG14341 (GeneID 33301) [SID104180163]: replicate 1, z-score of dpERK with insulin = 0.5
ssp (GeneID 39375) [SID104190044]: replicate 1, z-score of dpERK with insulin = -2.02
CG6766 (GeneID 34619) [SID104182783]: replicate 1, z-score of dpERK with insulin = 0.22
angel (GeneID 37748) [SID104184462]: replicate 1, z-score of dpERK with insulin = 1.2
angel (GeneID 37748) [SID104201109]: replicate 1, z-score of dpERK with insulin = 0.94
polybromo (GeneID 42954) [SID104194099]: replicate 1, z-score of dpERK with insulin = -1.58
CG13471 (GeneID 39604) [SID104189807]: replicate 1, z-score of dpERK with insulin = 0.56
CG12935 + Nop10 [SID104186817]: replicate 1, z-score of dpERK with insulin = 0.08
dpy (GeneID 318824) [SID104180025]: replicate 1, z-score of dpERK with insulin = -0.31
dpy (GeneID 318824) [SID104180026]: replicate 1, z-score of dpERK with insulin = -0.54
dpy (GeneID 318824) [SID104180264]: replicate 1, z-score of dpERK with insulin = -0.32
mRpL4 (GeneID 49425) [SID104183354]: replicate 1, z-score of dpERK with insulin = 0.03
CG17684 (GeneID 3355066) [SID104187516]: replicate 1, z-score of dpERK with insulin = 0.08
CG17684 (GeneID 3355066) [SID104200958]: replicate 1, z-score of dpERK with insulin = 0.2
CG13983 (GeneID 33875) [SID104182107]: replicate 1, z-score of dpERK with insulin = -0.42
UQCR-C1 (GeneID 41800) [SID104195300]: replicate 1, z-score of dpERK with insulin = -0.04
CG12253 (GeneID 47730) [SID104181945]: replicate 1, z-score of dpERK with insulin = 0.41
MME1 (GeneID 33987) [SID104182506]: replicate 1, z-score of dpERK with insulin = -0.74
CG33140 (GeneID 35642) [SID104185822]: replicate 1, z-score of dpERK with insulin = 0.2
Ada1-1 + Ada1-2 [SID104181012]: replicate 1, z-score of dpERK with insulin = 0.25
Ada1-1 + Ada1-2 [SID104181014]: replicate 1, z-score of dpERK with insulin = -0.38
Kap-alpha3 (GeneID 41158) [SID104196768]: replicate 1, z-score of dpERK with insulin = -0.95
CG6788 + CR32496 [SID104201624]: replicate 1, z-score of dpERK with insulin = -0.46
Non1 (GeneID 35963) [SID104185746]: replicate 1, z-score of dpERK with insulin = -0.17
Cypl (GeneID 38069) [SID104188154]: replicate 1, z-score of dpERK with insulin = 0.07
CG2875 (GeneID 31326) [SID104198023]: replicate 1, z-score of dpERK with insulin = -0.41
CG30460 (GeneID 36924) [SID104186351]: replicate 1, z-score of dpERK with insulin = 0.58
CG30460 (GeneID 36924) [SID104186352]: replicate 1, z-score of dpERK with insulin = -4.25
mTerf5 (GeneID 42182) [SID104196001]: replicate 1, z-score of dpERK with insulin = 0.93
CG14036 (GeneID 33735) [SID104182153]: replicate 1, z-score of dpERK with insulin = -0.18
bib (GeneID 34330) [SID104183288]: replicate 1, z-score of dpERK with insulin = 0.07
CG8925 (GeneID 41963) [SID104196247]: replicate 1, z-score of dpERK with insulin = 0.17
CG8925 (GeneID 41963) [SID104196248]: replicate 1, z-score of dpERK with insulin = 0.74
CG8925 (GeneID 41963) [SID104196249]: replicate 1, z-score of dpERK with insulin = 0.34

As entered above:
For “replicate 1, z-score of dpERK with insulin”, dpy (GeneID 318824) [SID104180026] is entered as -0.54
Under “replicate 1, z-score of dpERK with insulin”, MME1 (GeneID 33987) [SID104182506] is entered as -0.74
Entry of CG12253 (GeneID 47730) [SID104181945] in “replicate 1, z-score of dpERK with insulin”: 0.41
For “replicate 1, z-score of dpERK with insulin”, CG14036 (GeneID 33735) [SID104182153] has -0.18
dpy (GeneID 318824) [SID104180025], replicate 1, z-score of dpERK with insulin = -0.31
Result for CG6106 (GeneID 32816) [SID104199763] in “replicate 1, z-score of dpERK with insulin”: 0.76
